Laboratory results: PubChem BioAssay AID1259254 (NCATS, 2017)
This is a random part of about 59,000 reagents tested. About 1,550 of all reagents (2.6%) count as active. 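G2 share is only a proxy for re-replication; each gene was hit by three separate siRNAs, and active genes were retested.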 Raw values vary from plate to plate and are shown uncorrected. The numbers tell different reagents against one gene apart. No sequences are given here. The record does not give: the amount of reagent.

Screen: 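Gene knock-downs that lead to re-replication, shown by excess G2 DNA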 (primary screen)
Cells: human HCT116 colorectal cancer cells
Reagent: single siRNA against human genes
Duration: 3 days
Detection: 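Nuclei stained with Hoechst and imaged; cell-cycle phase assigned by DNA content; G2 share scaled per plate, non-targeting siRNA 0%, GMNN siRNA 100%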
Reading the numbers: G2 robust z-score and G2 cells, % of GMNN control: higher = more G2 cells, more excess DNA replication; raw share of cells in G2: higher = larger share of cells with G2 DNA content
Active means: 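Active siRNAs have a G2 robust z of 5 or more median absolute deviations over the median, which in these data means about 38% or higher of GMNN control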

Gene,reagent no.,G2 robust z-score,"G2 cells, % of GMNN control",raw share of cells in G2 (%),activity call
LUC7L (LUC7 like),1,0.234,4.62,6.3,inactive
LUC7L (LUC7 like),2,-0.509,-0.614,3.88,inactive
LUC7L (LUC7 like),3,0.87,9.09,6.04,inactive
LOC647115 (retired record),1,-0.811,-2.74,2.17,inactive
LOC647115 (retired record),2,3.91,30.5,15.3,inactive
LOC647115 (retired record),3,1.87,16.1,9.21,inactive
"CFC1 (cryptic, EGF-CFC family member 1)",1,-0.461,-0.279,4.24,inactive
"CFC1 (cryptic, EGF-CFC family member 1)",2,-0.597,-1.24,3.87,inactive
"CFC1 (cryptic, EGF-CFC family member 1)",3,0.804,8.62,5.76,inactive
CCNDBP1 (cyclin D1 binding protein 1),1,-0.132,2.04,5.18,inactive
CCNDBP1 (cyclin D1 binding protein 1),2,0.773,8.4,7.58,inactive
CCNDBP1 (cyclin D1 binding protein 1),3,-1.05,-4.43,1.75,inactive
ATP6V1F (ATPase H+ transporting V1 subunit F),1,-0.913,-3.46,2.97,inactive
ATP6V1F (ATPase H+ transporting V1 subunit F),2,3.96,30.9,16.1,inactive
ATP6V1F (ATPase H+ transporting V1 subunit F),3,1.3,12.1,9.05,inactive
ENOX1 (ecto-NOX disulfide-thiol exchanger 1),1,1.52,13.6,12.4,inactive
ENOX1 (ecto-NOX disulfide-thiol exchanger 1),2,0.31,5.15,6.28,inactive
ENOX1 (ecto-NOX disulfide-thiol exchanger 1),3,-0.239,1.28,4.87,inactive
SFXN1 (sideroflexin 1),1,-0.431,-0.0635,5.64,inactive
SFXN1 (sideroflexin 1),2,0.265,4.83,7.04,inactive
SFXN1 (sideroflexin 1),3,0.678,7.74,7.4,inactive
USP10 (ubiquitin specific peptidase 10),1,0.0758,3.5,6.78,inactive
USP10 (ubiquitin specific peptidase 10),2,-0.93,-3.58,3.64,inactive
USP10 (ubiquitin specific peptidase 10),3,-0.355,0.471,4.09,inactive
IDH3A (isocitrate dehydrogenase (NAD(+)) 3 catalytic subunit alpha),1,-0.448,-0.183,4.13,inactive
IDH3A (isocitrate dehydrogenase (NAD(+)) 3 catalytic subunit alpha),2,-0.0523,2.6,6.67,inactive
IDH3A (isocitrate dehydrogenase (NAD(+)) 3 catalytic subunit alpha),3,0.308,5.13,6.91,inactive
SCYL1 (SCY1 like pseudokinase 1),1,0.469,6.27,7.54,inactive
SCYL1 (SCY1 like pseudokinase 1),2,0.468,6.26,7.47,inactive
SCYL1 (SCY1 like pseudokinase 1),3,8.92,65.7,24.7,active
"PKD2 (polycystin 2, transient receptor potential cation channel)",1,3.28,26,14.8,inactive
"PKD2 (polycystin 2, transient receptor potential cation channel)",2,2.41,19.9,11.5,inactive
"PKD2 (polycystin 2, transient receptor potential cation channel)",3,-0.341,0.566,4.6,inactive
SPSB3 (splA/ryanodine receptor domain and SOCS box containing 3),1,3.46,27.3,16.7,inactive
SPSB3 (splA/ryanodine receptor domain and SOCS box containing 3),2,0.778,8.44,7.67,inactive
SPSB3 (splA/ryanodine receptor domain and SOCS box containing 3),3,-0.476,-0.379,5.49,inactive
"RAB2A (RAB2A, member RAS oncogene family)",1,-0.948,-3.7,3.7,inactive
"RAB2A (RAB2A, member RAS oncogene family)",2,1.37,12.6,8.34,inactive
"RAB2A (RAB2A, member RAS oncogene family)",3,-0.633,-1.49,4.11,inactive
SAR1B (secretion associated Ras related GTPase 1B),1,5.61,42.4,20.1,active
SAR1B (secretion associated Ras related GTPase 1B),2,-0.855,-3.05,4.57,inactive
SAR1B (secretion associated Ras related GTPase 1B),3,0.697,7.87,7.15,inactive
ADISSP (adipose secreted signaling protein),1,-0.238,1.29,4.07,inactive
ADISSP (adipose secreted signaling protein),2,-0.337,0.598,4.52,inactive
ADISSP (adipose secreted signaling protein),3,-0.725,-2.13,2.49,inactive
H3-5 (H3.5 histone),1,0.564,6.93,6.3,inactive
H3-5 (H3.5 histone),2,0.699,7.89,6.41,inactive
H3-5 (H3.5 histone),3,0.727,8.08,5.87,inactive
S1PR2 (sphingosine-1-phosphate receptor 2),1,0.0772,3.51,7.1,inactive
S1PR2 (sphingosine-1-phosphate receptor 2),2,-0.52,-0.691,4.28,inactive
S1PR2 (sphingosine-1-phosphate receptor 2),3,9.49,69.8,24.7,active
RCL1 (RNA terminal phosphate cyclase like 1),1,-0.188,1.64,7.13,inactive
RCL1 (RNA terminal phosphate cyclase like 1),2,0.132,3.9,5.1,inactive
RCL1 (RNA terminal phosphate cyclase like 1),3,1.44,13.1,11.4,inactive
TET3 (tet methylcytosine dioxygenase 3),1,-0.99,-4,2.17,inactive
TET3 (tet methylcytosine dioxygenase 3),2,-0.0944,2.3,3.73,inactive
TET3 (tet methylcytosine dioxygenase 3),3,-0.983,-3.95,1.51,inactive
SHOX2 (SHOX homeobox 2),1,1.64,14.5,10.6,inactive
SHOX2 (SHOX homeobox 2),2,-1.08,-4.62,2.96,inactive
SHOX2 (SHOX homeobox 2),3,1.74,15.2,8.99,inactive
MARK1 (microtubule affinity regulating kinase 1),1,-0.272,1.05,5.96,inactive
MARK1 (microtubule affinity regulating kinase 1),2,-0.142,1.97,6.07,inactive
MARK1 (microtubule affinity regulating kinase 1),3,-0.438,-0.115,3.98,inactive
H2AC1 (H2A clustered histone 1),1,-0.436,-0.102,3.54,inactive
H2AC1 (H2A clustered histone 1),2,-0.297,0.876,3.43,inactive
H2AC1 (H2A clustered histone 1),3,-0.313,0.767,3.44,inactive
COQ8A (coenzyme Q8A),1,0.0104,3.04,3.87,inactive
COQ8A (coenzyme Q8A),2,-0.365,0.4,6.09,inactive
COQ8A (coenzyme Q8A),3,-1.07,-4.56,2.2,inactive

Records listed so far whose target name begins with H or h:
Gene,reagent no.,G2 robust z-score,"G2 cells, % of GMNN control",raw share of cells in G2 (%),activity call
H3-5 (H3.5 histone),1,0.564,6.93,6.3,inactive
H3-5 (H3.5 histone),2,0.699,7.89,6.41,inactive
H3-5 (H3.5 histone),3,0.727,8.08,5.87,inactive
H2AC1 (H2A clustered histone 1),1,-0.436,-0.102,3.54,inactive
H2AC1 (H2A clustered histone 1),2,-0.297,0.876,3.43,inactive
H2AC1 (H2A clustered histone 1),3,-0.313,0.767,3.44,inactive
